# Laboratory results reported in the supplement of paper PMC12067093, “Discovery and optimisation of a covalent ligand for TRIM25 and its application to targeted protein ubiquitination” (Chemical Science, 2025).
# Some of the results follow.
# Compound: Cc1cc(ccc1-c1ccccc1)C(=O)N1CCCN(CC1)C(=O)CCl [compound 10]
# Test: probe-labelled cysteine peptide fold change vs DMSO (competition) (log2 fold change); higher = less target engagement (more negative = stronger competition)
# Details: THP-1, incubation time: 4 h
# 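Also: competitive profiling in live THP-1 cells: cysteine peptides tagged with an iodoacetamide desthiobiotin (IA-DTB) probe, intensity after compound treatment relative to DMSO-treated cells.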
Target,probe-labelled cysteine peptide fold change (10 µM),probe-labelled cysteine peptide fold change (50 µM)
CPSF2_Q9P2I0_187_EIHLNGCSLEMLSR (UniProt Q9P2I0),0.0742,0.366
CORO7_P57737_363_KAVEFHEDLFPDTAGCVPATDPHSWWAGDNQQVQK (UniProt P57737),-0.379,-0.663
CTCF_P49711_356_CSMCDYASVEVSK (UniProt P49711),0.465,-0.123
CSE1L_P55060_939_LSTACPGR (UniProt P55060),-0.114,-0.0231
CPNE1_Q99829_53_NCSSPEFSK (UniProt Q99829),-0.118,-0.316
CTPS1_P17812_362_LCSAHGVLVPGGFGVR (UniProt P17812),0.0315,0.0558
CRYBG1_Q9Y4K1_594+609_EVQLPTCHSNEPEVVSVASCAPPQEEVLGNEHSHCTAELAAK (UniProt Q9Y4K1),-0.278,-0.546
CSK_P41240_164_LSIDEEVYFENLMQLVEHYTSDADGLCTR (UniProt P41240),-0.0333,0.0201
CSTF1_Q05048_402+415_CIVHSPTNPGFMTCSDDFR (UniProt Q05048),0.0401,-0.0365
CSDE1_O75534_657_FQLCVLGQNAQTMAYNITPLR (UniProt O75534),0.223,0.2
COX17_Q14061_23+24_KPLKPCCACPETK (UniProt Q14061),-0.321,-2.25
CRYZL1_O95825_302_YLCILK (UniProt O95825),-0.195,-0.442
CSDE1_O75534_129_SPAAPGQSPTGSVCYER (UniProt O75534),0.1,0.0574
CPSF2_Q9P2I0_311_HLSLCHGLSDLAR (UniProt Q9P2I0),0.175,0.0266
CORO1B_Q9BR76_195_LDSLHPDLIYNVSWNHNGSLFCSACK (UniProt Q9BR76),0.204,-0.00526
CTCF_P49711_439+442_FHCPHCDTVIAR (UniProt P49711),0.212,-0.429
CPSF1_Q10570_1020_CTAHYVAYHVESK (UniProt Q10570),0.0843,-0.0666
CTNND1_O60716_394_SNAAAYLQHLCYR (UniProt O60716),-0.137,-0.0886
CREBBP_Q92793_1213_KYEFSPQTLCCYGK (UniProt Q92793),0.00616,-0.514
CPNE2_Q96FN4_265_DSVPLEFECINPK (UniProt Q96FN4),-0.207,-0.295
CSRP1_P21291_58_NLDSTTVAVHGEEIYCK (UniProt P21291),0.0278,-0.263

Target,probe-labelled cysteine peptide fold change (10 µM),probe-labelled cysteine peptide fold change (50 µM)
CORO1C_Q9ULV4_190_NGSLICTASK (UniProt Q9ULV4),0.105,0.0895
CPSF1_Q10570_532_SIRPQVVTTFELPGCYDMWTVIAPVR (UniProt Q10570),-0.0794,0.105
CPT2_P23786_512_CSEAFVREPSR (UniProt P23786),-0.113,-0.366
CSRP1_P21291_40_SCFLCMVCK (UniProt P21291),0.000679,-0.0607
CRKL_P46109_44_DSSTCPGDYVLSVSENSR (UniProt P46109),0.0857,0.0844
CSDE1_O75534_186_CQGVVCAMK (UniProt O75534),-0.157,-0.153
CRYZL1_O95825_274_HDIITLLGVGGHWVTTEENLQLDPPDSHCLFLK (UniProt O95825),0.104,0.255
CORO7_P57737_695_CLLVSGFDSQSER (UniProt P57737),0.484,-0.508
CORO1B_Q9BR76_41_VTWDSTFCAVNPK (UniProt Q9BR76),-0.0689,0.0432
CTPS1_P17812_30_SCGLHVTSIK (UniProt P17812),0.14,0.147
CPSF2_Q9P2I0_522_CISTTESIEIK (UniProt Q9P2I0),-0.219,-0.0672
CTNNA1_P35221_461_MSASQLEALCPQVINAALALAAK (UniProt P35221),0.108,0.332
CRYL1_Q9Y2S2_125_VILSSSTSCLMPSK (UniProt Q9Y2S2),-0.0791,-0.537
CORO7_P57737_505_GLNLTTPGESDGFCANK (UniProt P57737),-0.023,0.0129
CTPS1_P17812_299_LLETCSIALVGK (UniProt P17812),0.0506,0.127
CSE1L_P55060_344_NLFEDQNTLTSICEK (UniProt P55060),-0.186,-0.107
CTNNB1_P35222_520_NLALCPANHAPLR (UniProt P35222),-0.273,1.23
CRTAP_O75718_247_AFYECLAACEGSR (UniProt O75718),0.403,0.476
CPSF3_Q9UKF6_655_TVECEEGSEDDESLR (UniProt Q9UKF6),0.0669,0.446
CPNE3_O75131_15_VALNVSCANLLDK (UniProt O75131),0.132,-0.00401
CRYBG3_Q68DQ2_439_EELVEPQGPAISDFSCSK (UniProt Q68DQ2),-0.427,-0.189

Target,probe-labelled cysteine peptide fold change (10 µM),probe-labelled cysteine peptide fold change (50 µM)
CRBN_Q96SW2_234_FHCANLTSWPR (UniProt Q96SW2),-0.0246,-0.0309
CORO1C_Q9ULV4_23_NDQCYDDIR (UniProt Q9ULV4),0.000894,0.0628
CTNNA1_P35221_772_TIADHCPDSACK (UniProt P35221),-0.159,-0.259
CPOX_P36551_304_EACDQHGPDLYPK (UniProt P36551),-0.0942,-0.0866
CTPS1_P17812_176_ENFCNIHVSLVPQPSSTGEQK (UniProt P17812),0.199,-0.102
CTNND1_O60716_618_YQEAAPNVANNTGPHAASCFGAK (UniProt O60716),-0.274,-0.78
CSDE1_O75534_657_FQLCVLGQNAQTMAYNITPLRR (UniProt O75534),-0.163,-0.129
CPD_O75976_720_ENSQMFQGRPCK (UniProt O75976),-0.175,-0.202
CPNE3_O75131_202_ISLNSLCYGDMDK (UniProt O75131),0.104,-0.158
CSK_P41240_31_YNFHGTAEQDLPFCK (UniProt P41240),0.0242,-0.17
CRYBG3_Q68DQ2_1502_SSLSDSLVCISEK (UniProt Q68DQ2),-0.462,-0.368
CRIP1_P50238_52+56_PYCNHPCYAAMFGPK (UniProt P50238),0.0432,-0.424
CSDE1_O75534_191_CQGVVCAMK (UniProt O75534),-0.246,-0.192
CTBP1_Q13363_54_DVATVAFCDAQSTQEIHEK (UniProt Q13363),-0.258,0.0269
CPT2_P23786_639_EFLQCVEK (UniProt P23786),0.159,0.0476
CTBS_Q01459_281_GAPCSDAAGR (UniProt Q01459),-0.049,-0.0117
CRYBG3_Q68DQ2_474_HEHLQLPESECSDK (UniProt Q68DQ2),-0.181,0.0162
CTNND1_O60716_533_HIEWESVLTNTAGCLR (UniProt O60716),-0.0774,-0.0601
CORO2A_Q92828_25_ENCYDSVPITR (UniProt Q92828),-0.212,0.057
CPSF1_Q10570_20_QAHPPTGLEFSMYCNFFNNSER (UniProt Q10570),0.0231,0.306
CPSF6_Q16630_159_RELHGQNPVVTPCNK (UniProt Q16630),-0.0913,-0.231

# Shown tab-delimited: part of the list above.
Target	probe-labelled cysteine peptide fold change (10 µM)	probe-labelled cysteine peptide fold change (50 µM)
CTNNA1_P35221_772_TIADHCPDSACK (UniProt P35221)	-0.159	-0.259
CPOX_P36551_304_EACDQHGPDLYPK (UniProt P36551)	-0.0942	-0.0866
CTPS1_P17812_176_ENFCNIHVSLVPQPSSTGEQK (UniProt P17812)	0.199	-0.102
CTNND1_O60716_618_YQEAAPNVANNTGPHAASCFGAK (UniProt O60716)	-0.274	-0.78
CSDE1_O75534_657_FQLCVLGQNAQTMAYNITPLRR (UniProt O75534)	-0.163	-0.129
CPD_O75976_720_ENSQMFQGRPCK (UniProt O75976)	-0.175	-0.202
CPNE3_O75131_202_ISLNSLCYGDMDK (UniProt O75131)	0.104	-0.158
CSK_P41240_31_YNFHGTAEQDLPFCK (UniProt P41240)	0.0242	-0.17
CRYBG3_Q68DQ2_1502_SSLSDSLVCISEK (UniProt Q68DQ2)	-0.462	-0.368
CRIP1_P50238_52+56_PYCNHPCYAAMFGPK (UniProt P50238)	0.0432	-0.424
CSDE1_O75534_191_CQGVVCAMK (UniProt O75534)	-0.246	-0.192
CTBP1_Q13363_54_DVATVAFCDAQSTQEIHEK (UniProt Q13363)	-0.258	0.0269
CPT2_P23786_639_EFLQCVEK (UniProt P23786)	0.159	0.0476
CTBS_Q01459_281_GAPCSDAAGR (UniProt Q01459)	-0.049	-0.0117
CRYBG3_Q68DQ2_474_HEHLQLPESECSDK (UniProt Q68DQ2)	-0.181	0.0162

# (cont.)

Target,probe-labelled cysteine peptide fold change (10 µM),probe-labelled cysteine peptide fold change (50 µM)
CTNND1_O60716_516_MEIVDHALHALTDEVIIPHSGWEREPNEDCKPR (UniProt O60716),-0.133,-0.0646
CTAGE5_O15320_131_EATEAQSLEATCEK (UniProt Q96PC5+O15320),0.0328,0.226
CTPS1_P17812_216_GLGLSPDLVVCR (UniProt P17812),0.127,-0.31
CSNK2B_P67870_109_YQQGDFGYCPR (UniProt P67870),0.117,0.0278
CSK_P41240_422_NCWHLDAAMR (UniProt P41240),0.0895,0.247
CRACR2A_Q9BSW2_29_GSGACLHPLDSLEQK (UniProt Q9BSW2),-0.125,-0.217
CPSF1_Q10570_1178_GPVTALCHCNGHLVSAIGQK (UniProt Q10570),-0.124,-0.143
CPNE2_Q96FN4_48_SDPFCVLFTENNGR (UniProt Q96FN4),0.216,-0.00446
CPVL_Q9H3G5_320_CTEPEDQLYYVK (UniProt Q9H3G5),-0.128,-0.131
CPSF7_Q8N684_399_DCLHGIEAK (UniProt Q8N684),0.11,-0.0358
CROT_Q9UKG9_210_AFVFDVIHEGCLVTPPELLR (UniProt Q9UKG9),-0.0907,-0.163
CSTF2T_Q9H0L4_441_GMETCAMETR (UniProt Q9H0L4),-0.232,-0.575
CTBS_Q01459_93_YDSELMCYAHSK (UniProt Q01459),-0.068,-0.302
CSK_P41240_411_MDAPDGCPPAVYEVMK (UniProt P41240),-0.00657,-0.0602
CPSF2_Q9P2I0_335_VVLASQPDLECGFSR (UniProt Q9P2I0),0.00772,0.0765
CPSF1_Q10570_983_LHPMAIDGPVDSFAPFHNVNCPR (UniProt Q10570),-0.0556,0.0917
CTDP1_Q9Y5B0_201_LVLMVDLDQTLIHTTEQHCQQMSNK (UniProt Q9Y5B0),-0.3,-0.6
CREG1_O75629_147_HGFDPQSPLCVHIMLSGTVTK (UniProt O75629),0.0121,0.42
CRELD1_Q96HD1_343_QMEGICVK (UniProt Q96HD1),-0.0756,-0.108
CPSF2_Q9P2I0_578_QLIIVHGPPEASQDLAECCR (UniProt Q9P2I0),0.277,0.268
CREBBP_Q92793_1212_KYEFSPQTLCCYGK (UniProt Q92793),-0.135,-0.659
